Data on two sequences can be found in paper doi:10.1101/2025.07.24.666000.

For at least one entry, the source does not settle the construct or the ends of the probe. The direction of at least one scale is not stated here.

This data set has as its system thrombin (human, from plasma, Sigma T6884) (Homo sapiens). In words: pull-down. The conditions noted are these: release strand added (strand displacement), combined value for TBA and HD22.

“AGTCCGTGGTAGGGCAGGTTGGGGTGACTTATTCGCATTCTTAGATTAGAGCCTTATGAGCCGTC / TAAGAATGCGAATAAGTCACCCCAACCTGCCCTACCACGGACT [Switchable HD22 aptamer + release strand]”: the binding signal (% of captured thrombin released) is 71.7.
With “GGTTGGTGTGGTTGGTTAGTGATGAGCGGGATTAGAGCCTTATGAGCCGTC / CCGCTCATCACTAACCAACCACACCAACC [Switchable TBA aptamer + release strand]” the figure was 71.7.
